# From PubChem BioAssay AID1347075 (National Center for Advancing Translational Sciences (NCATS), 2019)
# Out of some 400,000 compounds screened, about 5,500 (1.4%) were called active. Inconclusive means that the source gave no clear call. Such entries were picked first, then a sample of the others. Calls come from the whole dose curve; as a rule, active = well fitted cell-killing curve with a large enough effect; inconclusive = small, poorly fitted or top-dose-only effect, or effect the other way; inactive = flat fitted curve, though single readings scatter. A potency beside an inconclusive call is a rough fit, not a confirmed value.
# Assay: qHTS assay for MDR1-selective chemotherapeutics: Primary screen using the parental adenocarcinoma cell KB-3-1; note: nearly all actives have a fitted effect of over 60% in size
# Conditions: KB-3-1 viability, CellTiter-Glo ATP luminescence, 72 h; activity change, negative = cytotoxic: at 46.1 µM (top of the series)
# From the text: A prime difficulty in effectively treating cancer is the development of cellular resistance to multiple structurally unrelated anticancer drugs, a phenomenon known as multidrug resistance (MDR). […] Numerous strategies to overcome P-gp-mediated MDR have been explored, including the design of drugs that evade recognition and efflux, and development of inhibitors to block efflux and restore drug accumulation. […] An alternative approach is to exploit resistance by identifying drugs that target MDR cells over the non-resistant parental cells from which they were selected. […] The development of MDR1-selective agents represents a new strategy for resolving multidrug resistance, as it remains a long-standing clinical challenge for cancer chemotherapy.
# Our goal is to identify compounds that selectively kill P-gp-expressing MDR cells. We will identify MDR1-selective compounds by comparing toxicity of compounds in the screening library against parental, drug-naive (KB-3-1) adenocarcinoma cells as well as their drug-selected MDR sub-line (KB-V1). The differential toxicity of compounds against these two cell lines will be used to identify MDR1-selective compounds, whose cytotoxicity is potentiated, rather than diminished, by P-gp expression. This assay will be utilized to conduct a quantitative high-throughput screen (qHTS) in collaboration with the NIH Chemical Genomics Center to identify selective agents, and probe hits arising from the screen will be validated using secondary assays and characterized through a well-established follow-up research program. This screen was run against the entire NCGC library collection of about 400,000 compounds.
# NIH Molecular Libraries Probe Production Network [MLPCN]
# NIH Chemical Genomics Center [NCGC]
# PI: Michael Gottesman PhD, National Cancer Institute, NIH
# Briefly, 5 microL of media containing either KB-3-1 cells (columns 1-2, 4-48) are dispensed into Greiner white, treated solid-bottom 1536-well assay plates (media-only control is added to column 3). Compounds are then transferred via Kalypsys pin tool equipped with 1536-pin array (10 nL slotted pins, V&P Scientific, San Diego, CA). Following addition of compound, the plates are incubated at 37 degrees C for 72 hours. CellTiter-Glo (2.5 µL/well) is then added, and the plates are read in a ViewLux reader (Perkin-Elmer, clear luminescence filter, 1 second exposure, 1x binning) following a 10 minute incubation. All cells are dispensed in DMEM phenol-red free media containing 10% FBS.
# Library plates were screened starting from the lowest and proceeding to the highest concentration. Vehicle-only plates, with DMSO being pin-transferred to columns 5-48, will be inserted uniformly at the beginning and the end of each library in order to monitor and record any shifts in the background, which can be affected by reagent dispensers or loss in enzyme activity over time. Screening data will be corrected, normalized, and concentration-effect relationships will be derived by using publicly-available NCGC, NCATS curve fitting algorithms (http://ncgc.nih.gov/pub/openhts).
# % is set by controls: 0 for no effect and ±100 for the full control effect; potency is the fitted concentration of half-maximal effect.
Compound,Potency,"activity change, negative = cytotoxic"
O=C(Cc1csc(NC(=O)Nc2cccc(Cl)c2)n1)NC1CCCC1,"inconclusive: 29.1 µM [cytotoxic, single point]",–
Cc1ccc(C(C)NC(=O)c2cc3ccccc3oc2=O)cc1C (stereo not given),–,inconclusive: -8.2%
CCc1ccc(C2=NN(S(C)(=O)=O)C(c3cccs3)C2)cc1 (stereo not given),"inconclusive: 16.4 µM [cytotoxic, partial curve, poor fit]",–
Cc1cc(C)n(-c2ccc(NC(=O)C3CCCCN3C(=O)c3sccc3C)cc2)n1 (stereo not given),"inconclusive: 0.0366 µM [rising, full curve]",–
CN(C)CCCN(C(=O)c1ccc(C(=O)c2ccccc2)cc1)c1nc2cc3c(cc2s1)OCO3,"inconclusive: 20.6 µM [cytotoxic, partial curve, poor fit]",–
CC(C)c1onc(C(=O)N2CCCCC2C)c1[N+](=O)[O-] (stereo not given),"inconclusive: 0.0411 µM [rising, full curve]",–
OCC1OC(c2ccc(OCc3ccccc3)cc2OCc2ccccc2)C(O)C1O (stereo not given),inactive,–
CCOc1ccc(NC(=O)Nc2ccc(Cc3ccncc3)cc2)cc1,"inconclusive: 13 µM [cytotoxic, partial curve, poor fit]",–
Cc1ccc(NC(=O)C2CCCN(c3ncnc4onc(C)c34)C2)c(Cl)c1 (stereo not given),active: 2.59 µM,–
Cc1nn(-c2ccccc2)c2c1C1(C(=O)Nc3ccccc31)N1C(=N2)Sc2ccccc21 (stereo not given),"inconclusive: 29.1 µM [cytotoxic, single point]",–
O=C1N(c2ccccc2)C[C@@H]2C[C@@H](c3cccs3)N3CCC[C@@]123,inactive,–
CN(CCO)c1ncnc2c1sc1nc(N3CCOCC3)c3c(c12)CCC3,"inconclusive: 29.1 µM [cytotoxic, single point]",–
Nc1c2c(=O)oc(-c3ccccc3)cc2nn1-c1ccccc1,active: 23.1 µM,–
CCCCCCCCCCCCCCCC[n+]1ccc(/C=C/c2c[nH]c3ccccc23)cc1,active: 11.6 µM,–
CNC(=S)N/N=C/c1ccc(N2CCOCC2)s1,"inconclusive: 25.9 µM [cytotoxic, single point]",–
CCOc1ccc(-n2cc(-c3ccccc3)c3c(SC(C)C(=O)OC)ncnc32)cc1 (stereo not given),inactive,–
O=C(c1cccc(Br)c1)N1CCN(C(=O)c2cccc(Br)c2)CC1,"inconclusive: 18.4 µM [rising, partial curve, poor fit]",–
O=C(CCl)NC1(C(=O)O)CCCC1,inactive,–
COc1ccc(Br)cc1[C@H]1[C@@H]2C=CCC[C@@]2(C)C(=O)N1Cc1ccccc1,"inconclusive: 18.4 µM [cytotoxic, single point]",–
CSc1ccc(CNC(=O)Cn2c(-c3cccs3)cc3cc(F)ccc32)cc1,inactive,–
CCOc1ccc(C(C)=O)cc1COC(=O)c1ccc2c(c1)NC(=O)CS2,"inconclusive: 16.4 µM [cytotoxic, partial curve, poor fit]",–
COc1ccc(CC(=O)Nc2ncc([N+](=O)[O-])s2)cc1OC,"inconclusive: 29.1 µM [rising, single point]",–
COc1ccccc1OCc1nc(-c2cccc(C)c2)no1,inactive,–
Cc1[nH]c2ccccc2c1C(=O)C(=O)N1CC=C(c2ccccc2)CC1,"inconclusive: 25.9 µM [cytotoxic, single point]",–
O=C(Nc1cc(Cl)ccc1Cl)N1CCN(C(=O)Nc2cc(Cl)ccc2Cl)CC1,inactive,–

Compound,Potency,"activity change, negative = cytotoxic"
O=C(/C=C/c1ccc(O)cc1)c1ccccc1,inactive,–
CC1CCN(C(=O)C(C)Sc2nc(-c3ccccc3)cc(C(F)(F)F)n2)CC1 (stereo not given),"inconclusive: 29.1 µM [cytotoxic, single point]",–
CCC1Oc2ccc(C)cc2N(CC(=O)N(Cc2ccc(C)o2)C2CCCC2)C1=O (stereo not given),"inconclusive: 25.9 µM [cytotoxic, single point]",–
COc1cc2c(cc1OC)CN(c1nc(CN3CCOCC3)nc3sc4c(c13)CCC(C)C4)CC2 (stereo not given),"inconclusive: 32.6 µM [cytotoxic, single point]",–
CS(=O)(=O)c1ccc(Cl)c(NC(=O)COC(=O)c2cccc(C#N)c2)c1,inactive,–
COCCCNC(=O)CCn1c(=O)c2ccccc2n(CC(=O)NCCc2ccc(OC)c(OC)c2)c1=O,"inconclusive: 0.651 µM [cytotoxic, full curve, poor fit]",–
CCOc1ccccc1NC(=O)CNS(=O)(=O)c1ccc2nc(C)sc2c1,inactive,–
CC(Oc1ccccc1)C(=O)NNC(=O)c1ccccn1 (stereo not given),"inconclusive: 9.2 µM [cytotoxic, partial curve, poor fit]",–
CC(C)c1ccc(CNC(=O)CSCC(=O)Nc2ccc3ccccc3c2)cc1,"inconclusive: 15.8 µM [cytotoxic, single point]",–
Cc1ccc(-c2nnc(Nc3ccccc3)o2)cc1,"inconclusive: 20.6 µM [cytotoxic, single point]",–
NSc1nc(N)c2nc(-c3ccccc3)c(-c3ccccc3)nc2n1,"inconclusive: 20.6 µM [cytotoxic, single point]",–
CCOC(=O)C1CCN(C(=O)c2ccc3c(c2)N=C(CC)c2cc(C)ccc2S3)CC1,inactive,–
CN(C)CC(=O)c1ccc(-c2ccccc2)cc1,inactive,–
COc1ccc(OCc2cc(C(=O)N(C)Cc3cc(C4CC4)n[nH]3)no2)c(Cl)c1,–,inconclusive: -15.1%
Cc1c(CN2CCC(CO)(Cc3ccccc3)CC2)c2ccccc2n1C,"inconclusive: 18.4 µM [cytotoxic, single point]",–
COc1ccc(C(NC(=O)c2ccc(F)cc2)c2ccccc2)cc1 (stereo not given),inactive,–
CCOc1ccc(/C=C2\CCC(C3CCCC3)C2=O)cc1 (stereo not given),inactive,–
C=CCN1C=C2C(=O)C(C)(OC(=O)c3cnc4ccccc4n3)C(=O)C=C2C=C1/C=C/COC (stereo not given),"inconclusive: 18.4 µM [cytotoxic, single point]",–
COc1ccc(C)cc1Nc1n[n+](-c2ccccc2)c(-c2ccc(OC)c(OC)c2OC)s1,"inconclusive: 29.1 µM [cytotoxic, single point]",–
COc1ccc(-c2cnc3c(-c4ccc(F)cc4)cnn3c2N)cc1,inactive,–
COC(=O)[C@@]12C[C@@H](CC(=O)NCCCN3CCCC3=O)C(=O)N(CCc3ccc(OC)c(OC)c3)C1=CCC(C)(C)C2,inactive,–
CCC(C)NCC(=O)Nc1ccc(-c2nc3cc(NC(=O)CNC(C)CC)ccc3o2)cc1 (stereo not given),"inconclusive: 20.6 µM [cytotoxic, single point]",–
COc1ccc(C(=O)N/N=C/c2ccc(SC)cc2)cc1,inactive,–
CSc1nc(N)nc(SCC(=O)Nc2ccc(Cl)cc2)c1C#N,"inconclusive: 29.1 µM [cytotoxic, single point]",–
CSc1ccccc1NC(=O)C(C)N(C)CC(=O)N1CCN(Cc2ccccc2)CC1 (stereo not given),inactive,–

# Rewritten as tab-separated lines: entries from further up.
Compound	Potency	activity change, negative = cytotoxic
CN(C)CC(=O)c1ccc(-c2ccccc2)cc1	inactive	–
Cc1c(CN2CCC(CO)(Cc3ccccc3)CC2)c2ccccc2n1C	inconclusive: 18.4 µM [cytotoxic, single point]	–

# The list goes on:

Compound,Potency,"activity change, negative = cytotoxic"
CCOC(=O)N1CCN(c2cc(N)c([N+](=O)[O-])cc2F)CC1,inactive,–
O=C(c1ccccc1)C1(c2ccccc2)OC1c1ccccc1 (stereo not given),inactive,–
O=C1COc2ccc(-c3csc(NCCc4ccccc4)n3)cc2N1,"inconclusive: 29.1 µM [cytotoxic, single point]",–
CCCn1c(SCC(=O)NC2CCCc3ccccc32)n[nH]c1=O (stereo not given),inactive,–
COc1cccc(NC(=O)COc2cc(O)c3c(c2)OC(C)(C)CC3=O)c1,inactive,–
O=C(CCN1C(=O)c2ccccc2C1=O)c1ccccc1,inactive,–
O=C1/C(=C/c2cccnc2)CC/C1=C\c1cccnc1,"inconclusive: 29.1 µM [cytotoxic, single point]",–
COc1cccc(-c2csc(N3CCN(C(=S)NCC(C)C)CC3)n2)c1,inactive,–
O=C(NC(c1ccccc1)c1ccsc1)C1CCN(Cc2ccc(Oc3ccccc3)cc2)CC1 (stereo not given),inactive,–
Cc1ccc(-n2[nH]c(C)c(/C=N/Nc3ccc([N+](=O)[O-])cc3[N+](=O)[O-])c2=O)cc1,"inconclusive: 20.6 µM [cytotoxic, single point]",–
CC(CN1CCOCC1)OC(=O)C(c1ccccc1)c1ccccc1 (stereo not given),inactive,–
O=c1cccc(-c2ccc3ccccc3c2)o1,inactive,–
Cc1ccc(S(=O)(=O)NCC(=O)NCC(=O)N(C)Cc2ccc3ccccc3c2)cc1C,"inconclusive: 14.6 µM [cytotoxic, partial curve, poor fit]",–
Cc1cc(C(=O)NCCc2ccccc2)c2cc(F)ccc2n1,inactive,–
CC(C)CC(=O)N/N=C/c1c(N)n(C)c(=O)n(C)c1=O,"inconclusive: 16.4 µM [rising, single point]",–
COc1ccc(-c2cc(C(F)(F)F)n3nc(C(=O)N4CCCCC4)cc3n2)cc1,inactive,–
CC1(C)Cc2cccc(OCC(=O)N3CCN(c4ccc([N+](=O)[O-])cc4)CC3)c2O1,"inconclusive: 25.9 µM [cytotoxic, single point]",–
COc1ccc(OC)c(S(=O)(=O)NCCOC23CC4CC(CC(C4)C2)C3)c1,inactive,–
COc1ccc(-n2c(SCc3cn4c(C)cccc4n3)nc3ccccc3c2=O)cc1OC,"inconclusive: 29.1 µM [cytotoxic, single point]",–
CSc1nnc2c(=O)[nH]c(=O)n(C)c2n1,"inconclusive: 20.6 µM [rising, single point]",–
COc1ccc(OCC(=O)NC(=O)c2ccccc2)c([N+](=O)[O-])c1,inactive,–
CC1CCc2onc(C(=O)NCc3ccco3)c2C1 (stereo not given),"inconclusive: 16.4 µM [cytotoxic, single point]",–
CCOC(=O)CNC(=O)N(CCOC)CC1CCCN(C2Cc3ccccc3C2)C1 (stereo not given),inactive,–
CN(CCOc1ccc(Br)cc1)CC(O)c1ccccc1 (stereo not given),"inconclusive: 16.4 µM [cytotoxic, single point]",–
Cc1ccc(S(=O)(=O)Nc2ccc3nc(C)oc3c2)cc1,"inconclusive: 7.31 µM [cytotoxic, partial curve]",–

# Among those listed so far, these have a CF3 group:
Compound,Potency,"activity change, negative = cytotoxic"
CC1CCN(C(=O)C(C)Sc2nc(-c3ccccc3)cc(C(F)(F)F)n2)CC1 (stereo not given),"inconclusive: 29.1 µM [cytotoxic, single point]",–
COc1ccc(-c2cc(C(F)(F)F)n3nc(C(=O)N4CCCCC4)cc3n2)cc1,inactive,–
